This note sets out measurements from publication PMC7053340.

No constants are given. Whether binding was seen depends on the method and setting. Binding seen in cells or lysates may run through a third protein. Where a sequence is shown, tags or fusion partners need not be part of it.

The test deals with Flag-CtBP2 (C-terminal-binding protein 2, from pcDNA3-2×Flag-CtBP2) (human), P56545. Briefly: co-IP; Flag-tagged and Myc-tagged plasmids co-transfected into HC-OA cells, 48 h, lysed, anti-Flag agarose and anti-c-Myc agarose 4°C 2 h, four washes with 1×RIPA; blots with anti-Flag and anti-Myc. To be noted: remark: other sources report otherwise.

B1: Myc-c-Jun (AP1 subunit, from pCDNA3-6×Myc-c-Jun), P05412 1-331 (protein)
chain: MTAKMETTFYDDALNASFLPSESGPYGYSNPKILKQSMTLNLADPVGSLKPHLRAKNSDLLTSPDVGLLKLASPELERLIIQSSNGHITTTPTPTQFLCPKNVTDEQEGFAEGFVRALAELHSQNTLPSVTSAAQPVNGAGMVAPAVASVAGGSGSGGFSASLHSEPPVYANLSNFNPGALSSGGGAPSYGAAGLAFPAQPQQQQQPPHHLPQQMPVQHPRLQALKEEPQTVPEMPGETPPLSPIDMESQERIKAERKRMRNRIAASKCRKRKLERIARLEEKVKTLKAQNSELASTANMLREQVAQLKQKVMNHVNSGCQLMLTQQLQTF
On to B1, for which the binding entry is “no binding”.
